Data published in PubChem BioAssay AID485314 (National Center for Advancing Translational Sciences (NCATS), 2010).
Out of some 340,000 compounds screened, about 4,500 (1.3%) were called active. Inconclusive results, whose numbers are uncertain, are shown with a selection of clear calls. The call rests on the fitted dose curve; in most records, active means well fitted inhibition curve with a large enough effect; inconclusive means small, poorly fitted or top-dose-only effect, or another doubt; inactive means no such curve, though single readings can be large or run the other way. Where the call is inconclusive, the potency comes from a doubtful curve fit.

molecular target: DNA polymerase beta (Homo sapiens) (UniProt P06746); test: qHTS Assay for Inhibitors of DNA Polymerase Beta; settings: Pol beta primer extension/strand displacement, fluorescence kinetic; activity change, negative = inhibition: at 114 µM (top of the series)
Procedure, shortened: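 Kinetic readout of DNA synthesis with strand displacement by Pol beta. Compound and 10 nM enzyme sit 15 min at room temperature; 50 nM substrate starts the reaction, read immediately and at 10 min.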
On the % scale 0 is the no-effect control and ±100 the full control effect; potency means the concentration at half of the fitted maximal effect.

| SMILES | Potency | activity change, negative = inhibition |
| --- | --- | --- |
| COc1ccc(Cn2c(C3CCCCC3)nc3c(c(=O)c4ccccc4n3C)c2=O)cc1 | active: 4.47 µM | – |
| Cc1nc(C(F)(F)F)c(C(=O)N=CN(C)C)s1 | inconclusive: 0.158 µM [inhibitor, full curve, poor fit] | – |
| COc1cc2c(c3oc(=O)cc(CC(=O)O)c13)CCC(C)(C)O2 | inconclusive: 39.8 µM [inhibitor, single point] | – |
| COc1ccccc1/C=C/C=c1\sc2nc(=O)c(Cc3ccccc3)nn2c1=O | – | inconclusive: -138% [inhibitor] |
| Cc1ccc(NC(=O)C2=C(O)CCn3c2nc2ccccc23)cc1 | inconclusive: 44.7 µM [inhibitor, partial curve, poor fit] | – |
| COC(=O)c1ccccc1NC(=S)N(Cc1ccc2c(c1)OCO2)Cc1cc2ccc(C)cc2[nH]c1=O | inconclusive: 89.1 µM [inhibitor, single point] | – |
| Cc1cccc(N2CCN(C(=O)c3c4c(nc5ccccc35)C(=O)N(C3CCCCC3)C4)CC2)c1C | inactive | – |
| Cc1cc2c(cc1S(=O)(=O)NCc1ccccc1)n(C)c(=O)c(=O)n2C | inconclusive: 2.82 µM [inhibitor, full curve, poor fit] | – |
| Cc1ccc(CC(=O)NCc2nc(-c3cccc(C)c3)no2)cc1 | inactive | – |
| COc1ccc(CCN=C2SCC(=O)N2Cc2ccccc2)cc1OC | inconclusive: 0.0891 µM [inhibitor, full curve, poor fit] | – |
| COc1ccc(C2(c3ccc(OC)cc3)NC(=O)NC2=O)cc1 | inactive | – |
| O=C(COC(=O)Cc1ccc(-c2ccccc2)cc1)NCc1ccc(F)cc1 | inactive | – |
| CCOC(=O)Cc1csc(N/N=C/c2cccc([N+](=O)[O-])c2)n1 | inactive | – |
| COc1ccc(CC(=O)Nc2ccc(-c3noc(COc4ccccc4C)n3)cc2)cc1 | inconclusive: 79.4 µM [inhibitor, single point] | – |
| CC(=O)Nc1nc(C)c(-c2csc(Nc3cccc([N+](=O)[O-])c3)n2)s1 | inconclusive: 44.7 µM [inhibitor, partial curve] | – |
| O=[N+]([O-])c1ccc(S(=O)(=O)c2ccccc2)nc1 | inactive | – |
| Cc1ccc(Cn2c(=N)c(C(=O)NCc3ccco3)cc3c(=O)n4ccccc4nc32)cc1 | active: 7.94 µM | – |
| Cc1ccc(NC(=O)N2CCc3c([nH]c4ccccc34)C2c2ccccc2F)c(Cl)c1 (configuration not stated) | inactive | – |
| Cc1ccc(C(=O)OCC(=O)Nc2ncc(Cl)cc2Cl)cc1NC(=O)c1ccco1 | inconclusive: 39.8 µM [inhibitor, full curve] | – |
| N/C(=N\OC(=O)c1cccc(F)c1)c1cccc([N+](=O)[O-])c1 | inconclusive: 39.8 µM [inhibitor, full curve, poor fit] | – |
| O=C(CCc1ccccc1)Nc1ccccc1C(F)(F)F | inconclusive: 89.1 µM [inhibitor, single point] | – |
| Cc1cc(C)cc(NC(=O)Nc2c[nH]c(=O)[nH]c2=O)c1 | inconclusive: 2.82 µM [inhibitor, full curve, poor fit] | – |
| Cc1ccc(C2=NN(C(=O)CCC(=O)O)C(c3cn(-c4ccccc4)nc3-c3ccc(C)cc3)C2)cc1 (configuration not stated) | active: 22.4 µM | – |
| OCc1nc2ccccc2n1CCc1ccccc1 | inconclusive: 39.8 µM [inhibitor, single point] | – |

| SMILES | Potency | activity change, negative = inhibition |
| --- | --- | --- |
| COc1ccc(OC)c(CCNc2ncnc3onc(C)c23)c1 | inactive | – |
| Cc1ccc(CCNC(=O)c2ccc(CNS(=O)(=O)c3ccc(F)cc3)cc2)cc1 | inactive | – |
| COc1ccc(C(=O)N=C2SC3CS(=O)(=O)CC3N2c2ccccc2)cc1OC (configuration not stated) | inconclusive: 0.126 µM [inhibitor, full curve, poor fit] | – |
| COc1cc(NC(=O)CN2CCC(Cc3ccccc3)CC2)c(C)cc1[N+](=O)[O-] | inconclusive: 3.16 µM [inhibitor, single point] | – |
| N#Cc1cc(-c2ccccc2)nc(Oc2ccccc2)n1 | inconclusive: 89.1 µM [inhibitor, single point] | – |
| Cc1ccc(CCNC(=O)CCCn2nc(C)c3c(C)n(-c4ccc(C)cc4)nc3c2=O)cc1 | inconclusive: 28.2 µM [inhibitor, full curve, poor fit] | – |
| COc1cc(-c2nnc(SCC(=O)N(C)C3CCCCC3)o2)cc(OC)c1OC | inconclusive: 89.1 µM [inhibitor, single point] | – |
| O=C1CCCN2N=C(SCC(=O)Nc3nccs3)SC2=N1 | active: 31.6 µM | – |
| CC(=O)Nc1ccc(-c2nnc3n(CC(C)C)c(=O)c4ccccc4n23)cc1 | inactive | – |
| CCOC(=O)C1=C(CNCc2ccccc2)NC(=O)NC1c1ccc(C)cc1 (configuration not stated) | inactive | – |
| CC(C)=CC(=O)OCC(=O)Nc1ncc(Cl)c(C)c1Cl | active: 39.8 µM | – |
| O=C(Nc1ccc2c(c1)OCCO2)c1coc2ccccc2c1=O | inactive | – |
| Cn1cc(C(=O)Nc2ccc(Cl)cc2)c(C(F)(F)F)n1 | inconclusive: 0.631 µM [inhibitor, full curve, poor fit] | – |
| COC(=O)c1ccccc1NC(=O)CSc1nc(O)cc(=O)n1C1CCCC1 | inconclusive: 89.1 µM [inhibitor, single point] | – |
| O=C(c1ccc(Cl)cc1)N1CCN(c2ncccn2)CC1 | inactive | – |
| CCN(c1ncnc2c1c(-c1ccccc1)cn2-c1ccccc1)C1CCCCC1 | inactive | – |
| CCN(CC)CCNC(=O)c1ccc2c(c1)ncn2C1CCCCC1 | inactive | – |
| CCNc1c(NC(=O)c2ccccc2OCC)c(=O)oc2ccccc12 | inactive | – |
| Cc1ccc(CN(Cc2ccco2)C(=O)c2ccco2)cc1 | inconclusive: 0.251 µM [inhibitor, full curve, poor fit] | – |
| Cc1ccc(NC(=O)c2ccc3c(=O)n4nc(Nc5ccccc5C)sc4nc3c2)cc1C | inactive | – |
| Cc1ccc(/C=C2/SC(=S)N(c3ccc(S(=O)(=O)Nc4nccs4)cc3)C2=O)cc1 | – | inconclusive: -84.1% [inhibitor] |
| N#Cc1ccccc1Sc1ccccc1C(=O)Nc1ccccc1 | inconclusive: 89.1 µM [inhibitor, single point] | – |
| COC(=O)c1sc(-c2ccccc2)cc1NC(=O)C1CC1 | inactive | – |

Part of the list above, as comma-separated lines:
SMILES,Potency,"activity change, negative = inhibition"
N#Cc1cc(-c2ccccc2)nc(Oc2ccccc2)n1,"inconclusive: 89.1 µM [inhibitor, single point]",–
CC(=O)Nc1ccc(-c2nnc3n(CC(C)C)c(=O)c4ccccc4n23)cc1,inactive,–
O=C(c1ccc(Cl)cc1)N1CCN(c2ncccn2)CC1,inactive,–
COC(=O)c1sc(-c2ccccc2)cc1NC(=O)C1CC1,inactive,–
